This is one part of the list.

In the test the target is T1, OsSMF1 (Oryza sativa, UniProt Q6ZLB0 1-436).
T1 sequence: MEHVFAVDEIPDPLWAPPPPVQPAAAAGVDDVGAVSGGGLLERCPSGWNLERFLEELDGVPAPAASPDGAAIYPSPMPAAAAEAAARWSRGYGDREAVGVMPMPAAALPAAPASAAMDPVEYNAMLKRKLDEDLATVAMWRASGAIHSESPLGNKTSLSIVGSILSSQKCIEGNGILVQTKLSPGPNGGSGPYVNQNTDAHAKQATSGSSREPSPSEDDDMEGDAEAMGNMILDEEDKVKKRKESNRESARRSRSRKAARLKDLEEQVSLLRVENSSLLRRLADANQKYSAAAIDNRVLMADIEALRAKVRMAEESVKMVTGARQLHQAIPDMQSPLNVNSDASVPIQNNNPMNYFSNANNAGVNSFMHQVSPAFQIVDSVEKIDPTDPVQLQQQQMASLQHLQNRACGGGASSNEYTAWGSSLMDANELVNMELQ
The experiment in a line: protein-binding microarray (RPBM); PBS, 2% BSA, 51.3 ng/ul salmon testes DNA, 50 uM zinc acetate, 200 nM TF, 25 C, 1 h; high values mean tight binding. The settings on record: protein: recombinant; tags: N-terminal polyhistidine and DsRed monomer fusion (pET32a); chain copies: 2; label: CyDye5-dUTP incorporated in the synthesized complementary strand; 3' TTTTT single-stranded linker to array surface; dsDNA, one strand shown. In outline: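 Transcription factors were each fused at the N-terminus to a polyhistidine tag plus DsRed and expressed in E. coli BL21-CodonPlus before Ni–NTA purification. Binding to a double-stranded custom Agilent array was carried out with 200 nM protein at 25 °C for 1 h in PBS, 2% BSA, salmon testes DNA and 50 µM zinc acetate. The binding signal is per-feature fluorescence intensity, in arbitrary units, on an Axon 4000B scanner.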
As to “TTTTAGCACTGACTTATAGATCAAACACGTGTATAAAAGTCGGAGTCACCTAGTGCAG”, the binding signal is 6020 fluorescence intensity (a.u.).
For the sequence “CTCCACGTCCGCGACCTCTCCTTCCTCCGCCCACGCCGCCCGGAGTCACCTAGTGCAG”, the binding signal was 20600 fluorescence intensity (a.u.).
Turning to “TTTTCCAACTTACCTCCTTCATTTTCCACGCGCACATTTTCGGAGTCACCTAGTGCAG”, the binding signal is 65500 fluorescence intensity (a.u.).
Take “ATATGTGAAAGTGTGGTATGTGTTTCACACGTGTGCATCTCGGAGTCACCTAGTGCAG”: the binding signal was 10200 fluorescence intensity (a.u.).
The value for “CGTGGTGGACGGCCTCGACGAGGCGATCTGCCCGGTGGCGCGGAGTCACCTAGTGCAG” was 3240 fluorescence intensity (a.u.); that for “AACGCATCGTCTCCTCTCCGCCGCCGCAGCGGAAGCGGAACGGAGTCACCTAGTGCAG” was 3780 fluorescence intensity (a.u.); that for “GTAGCATTGCGCGTGACGGCAGCAATGGCTTGACTTCCCACGGAGTCACCTAGTGCAG” was 3910 fluorescence intensity (a.u.).
“TATATAGGGCTGGATGGAAAGTTGGTGACTCTTAGCTCAGCGGAGTCACCTAGTGCAG”: the binding signal was 4870 fluorescence intensity (a.u.).
For “TTAATGTCCGAACACCTCATACAACGTGACGCGTCAAAACCGGAGTCACCTAGTGCAG”, the binding signal is 6890 fluorescence intensity (a.u.).
Take “ATTACGTGATGAACTGATTCTTGGACATAGAGATACGTGTCGGAGTCACCTAGTGCAG”: the binding signal was 3560 fluorescence intensity (a.u.).
Next, “GACGATCCCCATACTATGCAAATACCAGAATGACGACATCCGGAGTCACCTAGTGCAG”: 3880 fluorescence intensity (a.u.); “TTTGATGTGTTCAACTTGTCTTCGAACTACACTCTCTTCTCGGAGTCACCTAGTGCAG”: 3730 fluorescence intensity (a.u.).
For “CATTGCTCAACAAACTCATGTCACGTCATCCAGGGACAGACGGAGTCACCTAGTGCAG”, the binding signal was 5580 fluorescence intensity (a.u.).
Next, “GTGTTGGTTATGTACCTCATACTGTGCATGATTTGTCCCTCGGAGTCACCTAGTGCAG”: 3220 fluorescence intensity (a.u.).
Next, “CCTTCCACGCCACCTCTCCCCTTCCCACAGTCCCACGTCGCGGAGTCACCTAGTGCAG”: 4150 fluorescence intensity (a.u.).
The value for “TTTTGGATGTCACATCGGATGTTTGACCGGATATTGGATGCGGAGTCACCTAGTGCAG” was 3230 fluorescence intensity (a.u.); that for “ATAACTCATGGGAGCTGTCGAGCTGATGAGATGTCATGCACGGAGTCACCTAGTGCAG” was 3400 fluorescence intensity (a.u.); that for “AATAATCGAATCCAATCCATCTTCCACGCGCATTCCGGATCGGAGTCACCTAGTGCAG” was 3350 fluorescence intensity (a.u.).
In the case of “TGCGGTTCCGTGTCGTCCAAATTAATGTGTCACTGTTAATCGGAGTCACCTAGTGCAG”, the binding signal is 4710 fluorescence intensity (a.u.).
In the case of “GTGGGTCTACCATTCAGCTCGCGACGCGTGTGCTTCCTGTCGGAGTCACCTAGTGCAG”, the binding signal is 4250 fluorescence intensity (a.u.).
Regarding “GATCTGTCTACACATGCATGACCCTCGCGAGACTCATCTCCGGAGTCACCTAGTGCAG”, the binding signal was 3200 fluorescence intensity (a.u.).
In the case of “GCCCGTGTGTACGTACGTTACGTTACTTCCTCGTGCCGTGCGGAGTCACCTAGTGCAG”, the binding signal is 3500 fluorescence intensity (a.u.).
The value for “ATGTCAAAAGTTCCATTATTATACACACAATCTGCCTCTCCGGAGTCACCTAGTGCAG” was 3150 fluorescence intensity (a.u.).
Next, “ACGAATGGTCAAACGTTGGTTAAAAGGTTAAATGCGTCATCGGAGTCACCTAGTGCAG”: 3560 fluorescence intensity (a.u.); “CACGCTTCCGCCTTCCCATCGATGAGCTGGCGAGCTCGACCGGAGTCACCTAGTGCAG”: 6370 fluorescence intensity (a.u.).
Consider “AATAGTTTGATATTTTATGACATACGTGGTAATAAAACGCCGGAGTCACCTAGTGCAG”, for which the binding signal is 5760 fluorescence intensity (a.u.).
The value for “CTGCGAGAGCCAGTGGTGACGCCAGCGATGCGGGAGGAGGCGGAGTCACCTAGTGCAG” was 4740 fluorescence intensity (a.u.); that for “AGCCGCCGTAATTCGTACTACACGGCAGCACAAAGTGTTCCGGAGTCACCTAGTGCAG” was 3360 fluorescence intensity (a.u.).
The value for “CGGCCACTCCACCTAGTTGAATGCCCACTGGAGCTACTATCGGAGTCACCTAGTGCAG” was 3160 fluorescence intensity (a.u.); that for “CGAGAGAAACAGAGCGGAACACGTGTCCTTTCGCTCTTCTCGGAGTCACCTAGTGCAG” was 12500 fluorescence intensity (a.u.); that for “AGCGACGAATTCGTCAAACCCATCATCTCCTTCGCGCCGTCGGAGTCACCTAGTGCAG” was 12300 fluorescence intensity (a.u.).
As for “TGTAACATGTGGTCACCTCATACGTCATCATCGGAGAAGACGGAGTCACCTAGTGCAG”, the binding signal was 8910 fluorescence intensity (a.u.).
Turning to “CCGACAGTAGCCGTCGTCAGCTTCTTCGTTGGCACGCCGCCGGAGTCACCTAGTGCAG”, the binding signal is 4830 fluorescence intensity (a.u.).
Next, “TTCTCTATTTGGTTTTGTCACTGGTCAATGCCACCAACTGCGGAGTCACCTAGTGCAG”: 4140 fluorescence intensity (a.u.); “TAGAGAGCGGTTTTGCTGACGTGGCGTATACGTGACGGTACGGAGTCACCTAGTGCAG”: 33100 fluorescence intensity (a.u.); “CACATTTGCCAGCACCGAGATCTCCAGAGCCAGATATTCCCGGAGTCACCTAGTGCAG”: 3580 fluorescence intensity (a.u.).
Next, “GGGACGGGTAGTCCCGAAGAGAGGGAAGTGTCATCTTCGTCGGAGTCACCTAGTGCAG”: 3370 fluorescence intensity (a.u.); “TAGATCCAAAACCAGCGAAATCTACACCAAATCCACGCGGCGGAGTCACCTAGTGCAG”: 3240 fluorescence intensity (a.u.).
Next, “AGCTGGCTTCAATCTCCGGAAGATAGTCTTGTCATGCTAGCGGAGTCACCTAGTGCAG”: 3170 fluorescence intensity (a.u.); “GATCGCCGCCGCTGCGGTGAAAGGGGTTTTCTTTATATAGCGGAGTCACCTAGTGCAG”: 35000 fluorescence intensity (a.u.); “GATTGATGAGGCCGCAAAGCCTGGCTGCCTGCCTGCTTCTCGGAGTCACCTAGTGCAG”: 54300 fluorescence intensity (a.u.).
Take “CGCTGGCGTGGACGCGGCCGGGGCGCGACACGTCACGGGGCGGAGTCACCTAGTGCAG”: the binding signal is 15300 fluorescence intensity (a.u.).
